PubChem BioAssay AID1259308, NCATS | 2017

Aim: 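Candidate targets for better recombinant protein yield in mammalian cells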 (primary screen)
System: human HEK293 embryonic kidney cells stably expressing firefly luciferase (HEK-CMV-Luc2-Hygro)
Reagent: single siRNA against human genes, 0.8 pmol siRNA per well
Time to read-out: 72 h
Measured: 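Luciferase light (ONE-Glo) measured on one replicate plate set and viability (CellTiter-Glo) on the other, scaled to a negative control siRNA, with robust z-scores and luciferase per cell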
Direction: total luciferase, z-score and total luciferase, % of control: higher = more reporter protein produced; luciferase per cell, z-score: higher = more reporter output per viable cell; viable cells, % of control: higher = more viable cells
Rule for the call: 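Active when the median/MAD z-score for overall luciferase is greater than 3; a gene was taken forward for validation with new siRNAs if at least two of its three siRNAs passed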
Calls: active = raised luciferase; inactive = no rise
The deposit covers about 59,000 reagents; this is a random part of them. Of all reagents, about 1,510 (2.6%) got an active call. 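Calls use total luciferase alone and ignore viability, so some active siRNAs may act by altering cell number.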 A number with no mark means an inactive call. The numbers tell different reagents against one gene apart.

| gene | siRNA no. | total luciferase, z-score | total luciferase, % of control | luciferase per cell, z-score | viable cells, % of control |
| --- | --- | --- | --- | --- | --- |
| DIP2A | 1 | -1.15 | 59 | -1.35 | 94.3 |
| DIP2A | 2 | -0.641 | 69.1 | 0.0605 | 76 |
| DIP2A | 3 | 0.5 | 91.8 | 0.37 | 93.1 |
| GALP | 1 | -0.666 | 68.6 | 0.625 | 65.1 |
| GALP | 2 | 1.33 | 108 | 1.26 | 86.9 |
| GALP | 3 | 1.28 | 107 | 1.12 | 89.3 |
| CEP120 | 1 | -0.435 | 73.2 | -0.537 | 94.3 |
| CEP120 | 2 | 0.981 | 101 | 1.16 | 83.6 |
| CEP120 | 3 | 1.95 | 121 | 1.59 | 88.7 |
| SLC25A35 | 1 | 0.221 | 86.3 | 0.58 | 82.8 |
| SLC25A35 | 2 | 0.561 | 93.1 | 0.0488 | 103 |
| SLC25A35 | 3 | -1.13 | 59.4 | -1.4 | 96 |
| CTH | 1 | 3.86 (active) | 159 | 2.83 | 84.2 |
| CTH | 2 | 0.77 | 97.2 | 0.608 | 92.5 |
| CTH | 3 | 1.26 | 107 | 1.48 | 80.9 |
| LANCL1 | 1 | 0.251 | 86.9 | 0.247 | 91 |
| LANCL1 | 2 | -0.923 | 63.5 | -0.366 | 78.2 |
| LANCL1 | 3 | 0.781 | 97.4 | 0.602 | 92.9 |
| HACE1 | 1 | 0.0204 | 82.3 | -0.0631 | 93.5 |
| HACE1 | 2 | 0.102 | 83.9 | 0.103 | 91.3 |
| HACE1 | 3 | -0.688 | 68.2 | -0.751 | 92.9 |
| DERA | 1 | -0.37 | 74.5 | -1.1 | 111 |
| DERA | 2 | 0.92 | 100 | 1.45 | 76.5 |
| DERA | 3 | -0.948 | 63 | -0.298 | 76.2 |
| PIK3R4 | 1 | -0.123 | 79.4 | -0.726 | 107 |
| PIK3R4 | 2 | 3.15 (active) | 145 | 2.28 | 88.7 |
| PIK3R4 | 3 | -1.37 | 54.7 | -1.74 | 96.6 |
| RRM2B | 1 | -0.398 | 74 | -1.19 | 113 |
| RRM2B | 2 | -0.349 | 74.9 | -0.749 | 102 |
| RRM2B | 3 | -0.5 | 71.9 | -0.65 | 95.4 |
| ARRDC3 | 1 | 0.698 | 95.8 | 0.995 | 82.3 |
| ARRDC3 | 2 | -0.436 | 73.2 | -0.945 | 105 |
| ARRDC3 | 3 | -1.2 | 58.1 | -1.21 | 89.2 |
| PPEF1 | 1 | 0.647 | 94.7 | 1.53 | 70.9 |
| PPEF1 | 2 | 0.469 | 91.2 | 0.0993 | 99.3 |
| PPEF1 | 3 | -0.513 | 71.7 | 0.576 | 68.8 |
| KRTCAP2 | 1 | 1.2 | 106 | 1.26 | 84.7 |
| KRTCAP2 | 2 | -0.0488 | 80.9 | 0.238 | 84.9 |
| KRTCAP2 | 3 | -0.343 | 75.1 | -0.369 | 92.4 |
